The values below come from the supplement of paper PMC10735217.

For the experiment, the system named is HEK293A TEAD-LUC reporter. The experiment can be described thus: TEAD-luciferase reporter activity (YAP activation), robust Z score vs plate; higher = stronger YAP/TEAD activation. The settings on record: 24 h.

Structures are written as SMILES. Where a name gives a salt, the structure may show the parent alone. The list shows a part of the results. Repeats in this data set agree poorly, so a single value says little.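 The human kidney-derived cells carry a stably integrated construct of eight TEAD-binding elements driving luciferase, read by luminescence in a drug-repurposing library screen. A compound counts as a hit when its signal is more than five robust Z scores above the plate mean.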

For `CC/N=C(\NCC)NCCCCC(NC(=O)[C@H](Cc1ccc(O)cc1)NC(=O)[C@@H](CO)NC(=O)[C@@H](Cc1cccnc1)NC(=O)C(Cc1ccc(Cl)cc1)NC(=O)[C@H](Cc1ccc2ccccc2c1)NC(C)=O)C(=O)NC(CC(C)C)C(=O)NC(CCCCN/C(=N/CC)NCC)C(=O)N1CCC[C@@H]1C(=O)N[C@H](C)C(N)=O` (stereo partly specified) [Ganirelix], the TEAD-luciferase reporter activity (compound concentration: 2 uM) was inactive: -1.24.

`CC/N=C(\NCC)NCCCCC(NC(=O)[C@H](Cc1ccc(O)cc1)NC(=O)[C@@H](CO)NC(=O)[C@@H](Cc1cccnc1)NC(=O)C(Cc1ccc(Cl)cc1)NC(=O)[C@H](Cc1ccc2ccccc2c1)NC(C)=O)C(=O)NC(CC(C)C)C(=O)NC(CCCCN/C(=N/CC)NCC)C(=O)N1CCC[C@@H]1C(=O)N[C@H](C)C(N)=O` (stereo partly specified) [Ganirelix acetate]: the TEAD-luciferase reporter activity (compound concentration: 200 nM) was inactive: -0.712 and the TEAD-luciferase reporter activity (compound concentration: 10 uM) is inactive: -0.516.

On to `CCC(CC)Oc1cc(C)nc(Oc2c(C)cc(C)cc2C)c1C`, for which the TEAD-luciferase reporter activity was inactive: -0.87 (compound concentration: 200 nM), inactive: -1.65 (compound concentration: 2 uM) and inactive: -1.04 (compound concentration: 10 uM).

In the case of `CC[C@H]1Cn2nc(-c3ccc(Cl)cc3Cl)c3nc(C)cc(c32)N1CC1CC1`, the TEAD-luciferase reporter activity (compound concentration: 200 nM) was inactive: 2, the TEAD-luciferase reporter activity (compound concentration: 2 uM) is inactive: -0.897 and the TEAD-luciferase reporter activity (compound concentration: 10 uM) was inactive: 0.958.

Turning to `CCCN(c1ccncc1F)n1cc(C)c2ccccc21`, the TEAD-luciferase reporter activity by setting is: (compound concentration: 200 nM) inactive: 1.1; (compound concentration: 2 uM) inactive: -1.52; (compound concentration: 10 uM) inactive: 0.898.

Regarding `CC(C)C(C)(C)C` [triptan, inhaled], the TEAD-luciferase reporter activity (compound concentration: 2 uM) was inactive: -1.27.

On to `CC(C)C(C)(C)C` [triptan, inhaled, Vectura], for which the TEAD-luciferase reporter activity reads like this: (compound concentration: 200 nM) inactive: -1.41; (compound concentration: 10 uM) inactive: -1.28.

Take `O=C(O)CCC(=O)Nc1ccc(S(=O)(=O)c2ccc(NC(=O)CCC(=O)O)cc2)cc1`: the TEAD-luciferase reporter activity is, setting by setting: (compound concentration: 200 nM) inactive: -0.738; (compound concentration: 2 uM) inactive: 2.09; (compound concentration: 10 uM) inactive: 4.42.

For the compound `N=C(N)NC(=N)N1CCOCC1`, the TEAD-luciferase reporter activity by setting is: (compound concentration: 200 nM) inactive: -0.986; (compound concentration: 2 uM) inactive: -0.995; (compound concentration: 10 uM) inactive: -0.573.

For `N=C(N)NC(=N)N1CCOCC1` [moroxydinechloride], the TEAD-luciferase reporter activity (compound concentration: 2 uM) was inactive: 0.511.

Turning to `CC1=N[C@H](C(=O)O)[C@@H](O)CN1` [Hydroxyectoine], the TEAD-luciferase reporter activity runs as follows: (compound concentration: 200 nM) inactive: -0.956; (compound concentration: 10 uM) inactive: 2.97.

On to `CCOc1ccc(NC(C)=O)cc1`, for which the TEAD-luciferase reporter activity runs as follows: (compound concentration: 200 nM) inactive: 0.173; (compound concentration: 2 uM) inactive: 0.333; (compound concentration: 10 uM) inactive: 0.45.

As for `O=C1CN(S(=O)(=O)/C=C/c2ccc(Cl)s2)CCN1Cc1cc2cnccc2[nH]1`, the TEAD-luciferase reporter activity was inactive: -0.79 (compound concentration: 200 nM), inactive: -0.936 (compound concentration: 2 uM) and inactive: -0.11 (compound concentration: 10 uM).

For the compound `Cc1cc(NC(=O)C(=O)c2cc(Cc3ccc(C#N)cc3)n3ccccc23)sn1`, the TEAD-luciferase reporter activity by setting is: (compound concentration: 200 nM) inactive: 1.14; (compound concentration: 2 uM) inactive: 1.19; (compound concentration: 10 uM) active: 6.12.

Take `NCCCC[C@H](NC(=O)[C@@H]1CCCN1C(=O)[C@@H]1CSSC[C@H](N)C(=O)N[C@@H](Cc2ccccc2)C(=O)N[C@@H](Cc2ccccc2)C(=O)N[C@@H](CCC(N)=O)C(=O)N[C@@H](CC(N)=O)C(=O)N1)C(=O)NCC(N)=O` [Felypressin]: the TEAD-luciferase reporter activity by setting is: (compound concentration: 200 nM) inactive: 0.417; (compound concentration: 2 uM) inactive: 1.01; (compound concentration: 10 uM) inactive: -0.364.

On to `CCCCNc1ccc(C(=O)OCC[NH+](CC)CC)c(O)c1`, for which the TEAD-luciferase reporter activity is inactive: 2.75 (compound concentration: 200 nM), inactive: 0.215 (compound concentration: 2 uM) and inactive: 3.56 (compound concentration: 10 uM).

In the case of `Oc1ccc(CCCCNC[C@@H](O)c2ccc(O)c(O)c2)cc1`, the TEAD-luciferase reporter activity (compound concentration: 200 nM) is inactive: -2.42, the TEAD-luciferase reporter activity (compound concentration: 2 uM) was inactive: -0.0749 and the TEAD-luciferase reporter activity (compound concentration: 10 uM) is inactive: -0.658.

As to `Cc1cc(C)c(NC(=O)C[C@H](CC(=O)O)c2cccc3ccccc23)c(C(=O)N2CCC3(CCCC3)CC2)c1` [itriglumide], the TEAD-luciferase reporter activity is inactive: -2 (compound concentration: 200 nM), inactive: 1.91 (compound concentration: 2 uM) and inactive: -1.08 (compound concentration: 10 uM).

`CN(C)c1nc(O)c(-c2ccccc2)o1`: the TEAD-luciferase reporter activity runs as follows: (compound concentration: 200 nM) inactive: 0.694; (compound concentration: 2 uM) inactive: 0.486; (compound concentration: 10 uM) inactive: -0.817.

Regarding `CCCN1CCCC12Cc1ccccc1CN(C(=O)CNC(C)=O)C2` (stereo unspecified), the TEAD-luciferase reporter activity was inactive: 2.09 (compound concentration: 200 nM) and inactive: 1.7 (compound concentration: 10 uM).

For the compound `CC(C)(C)c1cc(NC(=O)Nc2ccc(-c3cn4c(n3)sc3cc(OCCN5CCOCC5)ccc34)cc2)no1` [quizartinib dihydrochloride], the TEAD-luciferase reporter activity was inactive: -0.308 (compound concentration: 200 nM), inactive: -1.14 (compound concentration: 2 uM) and inactive: -0.145 (compound concentration: 10 uM).

As for `CO/N=C(\C(=O)N[C@@H]1C(=O)N2C(C(=O)[O-])=C(C[N+]3(C)CCCC3)CS[C@H]12)c1csc(N)n1` [Cefepime hydrochloride], the TEAD-luciferase reporter activity is, setting by setting: (compound concentration: 200 nM) inactive: 0.242; (compound concentration: 10 uM) inactive: -1.39.

In the case of `CO/N=C(\C(=O)N[C@@H]1C(=O)N2C(C(=O)[O-])=C(C[N+]3(C)CCCC3)CS[C@H]12)c1csc(N)n1` [cefepime], the TEAD-luciferase reporter activity (compound concentration: 2 uM) was inactive: -0.977.

Regarding `Cc1ncc[nH]1` [2-methylimidazole], the TEAD-luciferase reporter activity by setting is: (compound concentration: 200 nM) inactive: -0.607; (compound concentration: 2 uM) inactive: -0.0553; (compound concentration: 10 uM) inactive: -1.12.

`CCOC(=O)C1=C(C)NC(C)=C(C(=O)OCCN2CCCCC2)C1c1cccc([N+](=O)[O-])c1` (stereo unspecified): the TEAD-luciferase reporter activity (compound concentration: 200 nM) is inactive: -2.67, the TEAD-luciferase reporter activity (compound concentration: 2 uM) was inactive: -0.504 and the TEAD-luciferase reporter activity (compound concentration: 10 uM) was inactive: 2.11.

Consider `COC(=O)[C@H](Cc1cccc(C(=N)N)c1)[C@@H](C)NC(=O)c1ccc(-c2cccc(CN)c2)cc1`, for which the TEAD-luciferase reporter activity reads like this: (compound concentration: 200 nM) inactive: -1.1; (compound concentration: 2 uM) inactive: 0.0404; (compound concentration: 10 uM) inactive: 0.664.

Take `CCCCOP(=O)(CC(CCOc1ccccc1)CP(=O)(OCCCC)OCCCC)OCCCC`: the TEAD-luciferase reporter activity is, setting by setting: (compound concentration: 200 nM) inactive: -1.29; (compound concentration: 2 uM) inactive: 0.838; (compound concentration: 10 uM) inactive: 1.96.

On to `Cc1cccc2c1C=Cc1ccccc1C2=CCC[N+](C)(C)[O-]`, for which the TEAD-luciferase reporter activity runs as follows: (compound concentration: 200 nM) inactive: 2.03; (compound concentration: 2 uM) inactive: 0.844; (compound concentration: 10 uM) active: 8.38.

On to `NC(=O)c1nc[nH]c1N`, for which the TEAD-luciferase reporter activity is, setting by setting: (compound concentration: 200 nM) inactive: 0.126; (compound concentration: 2 uM) inactive: -0.643; (compound concentration: 10 uM) inactive: 0.871.

With `CCn1c(=Cc2ccccn2)sc(=C2Sc3ccccc3N2C)c1=O`, the TEAD-luciferase reporter activity was inactive: -1.13 (compound concentration: 200 nM), inactive: 0.53 (compound concentration: 2 uM) and inactive: -0.364 (compound concentration: 10 uM).

In the case of `O=S(=O)(Nc1cc(Cl)c(Oc2cnc3ccccc3c2)c(Cl)c1)c1ccc(Cl)cc1Cl`, the TEAD-luciferase reporter activity is, setting by setting: (compound concentration: 200 nM) inactive: -2.99; (compound concentration: 2 uM) inactive: -1.71; (compound concentration: 10 uM) inactive: 0.351.

Turning to `O=C(O)c1ccc(Cl)cc1Cl` [Analben], the TEAD-luciferase reporter activity reads like this: (compound concentration: 200 nM) inactive: 1.63; (compound concentration: 2 uM) inactive: -0.419; (compound concentration: 10 uM) inactive: -0.0368.

Take `CCN1CCN(Cc2ccc(Nc3ncc(F)c(-c4cc(F)c5nc(C)n(C(C)C)c5c4)n3)nc2)CC1` [abemaciclib]: the TEAD-luciferase reporter activity (compound concentration: 200 nM) was inactive: -1.53, the TEAD-luciferase reporter activity (compound concentration: 2 uM) was inactive: -2.43 and the TEAD-luciferase reporter activity (compound concentration: 10 uM) is inactive: -1.24.
